Laboratory results from patent publication US20190002888A1 (INSTITUT NATIONAL DE LA SANTE ET DE LA RECHERCHE MEDICALE …, published 2019).
Results are given in words; binding and its absence hold for the method and conditions named. Some entries that bind do so weakly or less than the wild type. Sequences can lack the tags named with a protein.

Assays:
[1] = biological target: T1, Fc fragment coupled to ECD of mouse FLT3 (Fc-ECDmFLT3) (mouse) (UniProt Q00342); assay: summary sentence of Example 2
T1 sequence (looked up): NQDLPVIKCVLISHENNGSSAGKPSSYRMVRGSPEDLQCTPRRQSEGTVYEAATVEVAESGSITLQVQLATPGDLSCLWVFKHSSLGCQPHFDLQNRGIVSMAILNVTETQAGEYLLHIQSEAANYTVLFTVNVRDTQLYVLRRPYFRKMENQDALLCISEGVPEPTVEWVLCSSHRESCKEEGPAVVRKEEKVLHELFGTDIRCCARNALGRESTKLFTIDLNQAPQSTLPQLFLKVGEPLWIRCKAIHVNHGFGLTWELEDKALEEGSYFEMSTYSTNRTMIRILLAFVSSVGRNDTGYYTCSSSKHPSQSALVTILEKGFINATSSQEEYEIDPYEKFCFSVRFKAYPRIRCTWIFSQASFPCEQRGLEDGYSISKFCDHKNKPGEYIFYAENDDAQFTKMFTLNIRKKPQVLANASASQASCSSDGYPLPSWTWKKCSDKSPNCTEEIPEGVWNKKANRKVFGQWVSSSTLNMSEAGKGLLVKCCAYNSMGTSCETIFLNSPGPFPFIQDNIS

[2] = biological target: T2, Fc fragment coupled to ECD of human FLT3 (Fc-ECDhFLT3) (human) (UniProt P36888); assay: summary sentence of Example 2
T2 sequence (looked up): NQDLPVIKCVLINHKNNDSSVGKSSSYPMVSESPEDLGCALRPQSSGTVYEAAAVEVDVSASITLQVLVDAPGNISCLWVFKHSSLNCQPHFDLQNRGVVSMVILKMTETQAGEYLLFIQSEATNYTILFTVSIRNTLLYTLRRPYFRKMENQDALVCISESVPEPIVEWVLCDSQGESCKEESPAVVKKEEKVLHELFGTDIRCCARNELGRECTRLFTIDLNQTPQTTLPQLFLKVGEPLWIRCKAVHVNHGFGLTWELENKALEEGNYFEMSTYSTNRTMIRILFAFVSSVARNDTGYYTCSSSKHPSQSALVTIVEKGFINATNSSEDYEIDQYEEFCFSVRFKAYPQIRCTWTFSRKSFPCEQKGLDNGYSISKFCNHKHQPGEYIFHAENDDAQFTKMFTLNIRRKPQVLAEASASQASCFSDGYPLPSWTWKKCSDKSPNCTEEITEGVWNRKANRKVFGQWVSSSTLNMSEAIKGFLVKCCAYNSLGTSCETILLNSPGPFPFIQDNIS

[3] = biological target: T1, Fc fragment coupled to ECD of mouse FLT3 (Fc-ECDmFLT3) (mouse); assay: ELISA, recombinant protein coated, A3 at 10 µg/mL, anti-human antibody-HRP
[4] = biological target: T2, Fc fragment coupled to ECD of human FLT3 (Fc-ECDhFLT3) (human); assay: as above

- binding [1]: binds
- binding [2]: binds
- binding [3]: binds
- binding [4]: binds
B1: A3 antibody (human monoclonal antibody against FLT3) (antibody, V domains shown)
VH: EVQLVESGGSLVKPGGSLRLSCAASGFTFSNSYMNWVRQAPGKGLEWISDISGSSRDIDYADFVKGRFTISRDNATNSLYLQMNSLRAEDTAVYYCVRSGNSGMDVWGRGTLVTVSS
VL: QSVLTQPASVSGSPGQSITISCAGTSSDVGGGYYVSWYQQHPGKAPKLMIYYDSYRPSGVSNRFSGSKSGNTASLTISGLQAEDEADYYCSSYTNNSTRVFGGGTKLEIK
notes: also called antibody A3; anti-FLT3 A3 antibody
